From ChEMBL document CHEMBL3885861, “Open TG-GATES”

Species: Rattus norvegicus
Experiment: Open TG-GATES - Regimen: Daily Repeat
Format: toxicity, organism-based, Sprague-Dawley
Parameters: regimen Daily Repeat, gender Male, age 6 weeks
Conditions: in vivo, po, route gavage; for LIVER: tissue Liver
[1] = 20 mg/kg, 72 h, tissue Blood, dose level Low, time 3 day
[2] = 20 mg/kg, […], tissue Blood, dose level Low, time 7 day
[3] = 20 mg/kg, […], tissue Plasma, dose level Low, time 7 day
[4] = 60 mg/kg, […], tissue Blood, dose level Middle, time 7 day
[5] = 60 mg/kg, […], tissue Blood, dose level Middle, time 28 day
[6] = 200 mg/kg, 72 h, tissue Plasma, dose level High, time 3 day

`CCCCc1oc2ccccc2c1C(=O)c1cc(I)c(OCCN(CC)CC)c(I)c1` [AMIODARONE] showed an MCH (0 mg/kg, 72 h, tissue Blood, dose level Control, time 3 day) of 21.4 pg, an MCHC (0 mg/kg, […], tissue Blood, dose level Control, time 7 day) of 34.3% and a PT (0 mg/kg, […], tissue Blood, dose level Control, time 14 day) of 12.6 s. For the same molecule, the TC (0 mg/kg, […], tissue Plasma, dose level Control, time 14 day) was 80.4 mg/dL, the APTT [1] was 18.4 s and the MCHC [1] was 34.7%. For the same molecule, the Hb [2] was 13.3 g/dL, the PT [2] was 12.5 s and the MCHC (20 mg/kg, […], tissue Blood, dose level Low, time 14 day) was 34.5%. It also gave a Hb (20 mg/kg, […], tissue Blood, dose level Low, time 28 day) of 15.2 g/dL, a BUN [3] of 15.2 mg/dL and a PL [3] of 143 mg/dL. It also gave an AST (60 mg/kg, 72 h, tissue Plasma, dose level Middle, time 3 day) of 68.6 IU/L, a Ht [4] of 38.2% and an MCV [4] of 61.5 fL. For the same molecule, the PT (60 mg/kg, […], tissue Blood, dose level Middle, time 14 day) was 12.6 s, the Hb [5] was 14.7 g/dL and the PT [5] was 12.5 s. For the same molecule, the LIVER (60 mg/kg, […], dose level Middle, time 7 day) was 12.9 g, the ALT [6] was 43.6 IU/L and the AST [6] was 71.4 IU/L. The LIVER (200 mg/kg, […], dose level High, time 28 day) was 11.7 g and the TG (200 mg/kg, […], tissue Plasma, dose level High, time 14 day) was 18.8 mg/dL.
